PubChem BioAssay AID504804, Drosophila RNAi Screening Center, 2011

Test: 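Knock-downs shielding fly cells from apoptosis caused by DNA damage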 (primary screen)
Cells: Drosophila Kc cells
Reagents: long dsRNA against Drosophila genes, 0.5 µg dsRNA per well
Timing: 96 h (48 h knock-down, then 48 h drug)
Challenge: doxorubicin 5 µg/ml for 48 h, added 48 h after dsRNA
Measurement: 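Luminescent ATP counts per replicate, not normalised, reflecting viable cells after 48 h dsRNA knock-down followed by 48 h of 5 µg/ml doxorubicin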
Direction: raw ATP luminescence: higher = more viable cells, protection from doxorubicin
Hit rule: 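Active when both duplicate wells lie at least 2 SD above the plate mean and protection is confirmed by rescreening and independent dsRNAs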
In all, the deposit lists about 19,000 reagents; this is an unselected part of those that have a named target and a result. Of all reagents, 47 (0.25%) got an active call. 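Signals are raw, not normalised; exact z-scores behind calls not deposited; actives needed confirmation, so some wells reaching 2 SD are inactive.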 Names joined by + are all predicted targets of the reagent.

target,dsRNA,SD above plate mean,"raw ATP luminescence, replicate 1","raw ATP luminescence, replicate 2",outcome
Hph (HIF prolyl hydroxylase),DRSC12164,,49300,27313,inactive
Hph (HIF prolyl hydroxylase),DRSC12251,,66707,57880,inactive
ATP8B (ATPase 8B),DRSC14961,,34877,52100,inactive
mod(mdg4) (modifier of mdg4),DRSC13474,,2.00e5,1.99e5,inactive
mod(mdg4) (modifier of mdg4),DRSC13475,,1.96e5,1.79e5,inactive
mod(mdg4) (modifier of mdg4),DRSC13478,,1.81e5,1.94e5,inactive
mod(mdg4) (modifier of mdg4),DRSC13479,,1.78e5,1.90e5,inactive
mod(mdg4) (modifier of mdg4),DRSC15042,,32620,36810,inactive
mod(mdg4) (modifier of mdg4),DRSC17000,,52303,54617,inactive
CG10000,DRSC14170,,54890,37560,inactive
"ATPsynO (ATP synthase, oligomycin sensitivity conferring protein)",DRSC16780,,67223,33453,inactive
shu (shutdown),DRSC04484,,68277,65203,inactive
CG5214,DRSC15739,,64210,52613,inactive
Aven (Apoptosis and caspase activation inhibitor),DRSC19693,,2.91e5,2.96e5,inactive
CG4842,DRSC10453,,56523,51563,inactive
CG12241,DRSC14481,,70277,43233,inactive
Cdk7 (Cyclin-dependent kinase 7),DRSC18451,,41160,54290,inactive
yrt (yurt),DRSC16559,,46897,25030,inactive
ppk29 (pickpocket 29),DRSC04205,,41133,60063,inactive
DUBAI (Deubiquitinating apoptotic inhibitor),DRSC07281,,64843,59250,inactive
Fmo-1 (Flavin-containing monooxygenase 1),DRSC04328,,70550,58440,inactive
Tsp (Thrombospondin),DRSC02144,,93873,82737,inactive
Tsp (Thrombospondin),DRSC02145,,38520,35933,inactive
BaraC (Baramicin C),DRSC03885,2 to 3 SD above plate mean,1.08e5,88780,active
Sas-6 (Spindle assembly abnormal 6),DRSC15061,,58990,47790,inactive
SkpC (SKP1-related C),DRSC20375,,3.72e5,3.32e5,inactive
GlcT (Glucosylceramide synthase),DRSC04525,,76340,58453,inactive
scra (scraps),DRSC07679,,83433,69603,inactive
CG7747,DRSC07038,,60730,55877,inactive
Ranbp16,DRSC20160,,2.99e5,2.77e5,inactive
fd59A (forkhead domain 59A),DRSC04685,,68637,60460,inactive
"SmydA-4 (SET and MYND domain containing, arthropod-specific, member 4)",DRSC19390,,4.01e5,3.62e5,inactive
CG4911,DRSC10456,,58633,35353,inactive
Ythdf (YTH N6-methyladenosine RNA binding protein),DRSC16036,,76730,58530,inactive
Ythdf (YTH N6-methyladenosine RNA binding protein),DRSC16037,,84110,65100,inactive

Entries above whose gene name begins with H or h:
target,dsRNA,SD above plate mean,"raw ATP luminescence, replicate 1","raw ATP luminescence, replicate 2",outcome
Hph (HIF prolyl hydroxylase),DRSC12164,,49300,27313,inactive
Hph (HIF prolyl hydroxylase),DRSC12251,,66707,57880,inactive

The listing continues.
target,dsRNA,SD above plate mean,"raw ATP luminescence, replicate 1","raw ATP luminescence, replicate 2",outcome
kra (krasavietz),DRSC12320,,55103,22053,inactive
Cpr72Eb (Cuticular protein 72Eb),DRSC09870,,54797,52080,inactive
CG6766,DRSC02991,,72813,67833,inactive
CG13243,DRSC01920,,75317,80863,inactive
PIP4K (Phosphatidylinositol 5-phosphate 4-kinase),DRSC17213,,41200,51630,inactive
AGO1 (Argonaute-1),DRSC05912,,54260,49167,inactive
Wdr37 (WD repeat domain 37),DRSC14500,,43050,44507,inactive
CG2224,DRSC15429,,59720,51980,inactive
CG14205,DRSC19560,,3.36e5,3.01e5,inactive
CG13066,DRSC09949,,41130,31293,inactive
Lcp9 (Larval cuticle protein 9),DRSC04287,,36050,55897,inactive
iav (inactive),DRSC18363,,33750,44810,inactive
CheB38a (Chemosensory protein B 38a),DRSC03205,,57780,61983,inactive
PIP5K59B (Phosphatidylinositol 4-phosphate 5-kinase 59B),DRSC04290,,69747,61140,inactive
PIP5K59B (Phosphatidylinositol 4-phosphate 5-kinase 59B),DRSC04403,,44577,41257,inactive
CG34286,DRSC13372,,2.42e5,2.68e5,inactive
CG18324,DRSC06721,,95707,63110,inactive
Pxd (Peroxidase),DRSC16805,,64820,60460,inactive
CG2202,DRSC19841,at least 2 SD above plate mean,2.02e5,2.25e5,inactive
CG3222,DRSC10355,,83647,69127,inactive
CG32809,DRSC18507,,2.54e5,2.91e5,inactive
CG32809,DRSC18562,,49870,58070,inactive
Spase22-23 (Spase 22/23-subunit),DRSC15857,,64280,84810,inactive
CG16719,DRSC10222,,43767,30413,inactive
dimm (dimmed),DRSC03100,,48003,55337,inactive
Mnat9 (microtubule-associated Nat9),DRSC14325,,55600,62620,inactive
Ccdc58 + CG34116,DRSC10105,,72263,68460,inactive
unc-4,DRSC20381,,3.33e5,3.15e5,inactive
CG4021,DRSC04439,,58293,62187,inactive
CG7196 (retired record),DRSC01000,,3.18e5,2.93e5,inactive
CG7196 (retired record),DRSC03023,,36150,56583,inactive
CG43163,DRSC10745,,81177,1.03e5,inactive
CG43163,DRSC10748,,90457,93143,inactive
nAChRbeta1 (nicotinic Acetylcholine Receptor beta1),DRSC08097,,1.84e5,1.44e5,inactive
nAChRbeta1 (nicotinic Acetylcholine Receptor beta1),DRSC08728,,40310,48300,inactive
Mtr3,DRSC10953,,67820,68407,inactive
Eig71Eb (Ecdysone-induced gene 71Eb),DRSC11149,,75413,62627,inactive
CAH14 (Carbonic anhydrase 14),DRSC04234,,67513,63637,inactive
CG6931,DRSC10750,,38810,41540,inactive
CG1602,DRSC06601,,41807,81910,inactive
CG2162,DRSC08557,,46547,44897,inactive
CG31639,DRSC00910,,2.56e5,2.64e5,inactive
nebu (nebulosa),DRSC09807,,45097,39013,inactive
nebu (nebulosa),DRSC09808,,68703,62720,inactive
att-ORFB + DPCoAC,DRSC15556,,45620,45130,inactive
CG3288,DRSC11745,,63717,52747,inactive
DIP2 (DISCO Interacting Protein 2),DRSC08582,,68750,58967,inactive
Ir10a (Ionotropic receptor 10a),DRSC18891,,2.17e5,2.04e5,inactive
Ir10a (Ionotropic receptor 10a),DRSC19478,,3.62e5,3.40e5,inactive
Ir10a (Ionotropic receptor 10a),DRSC19479,,3.31e5,3.47e5,inactive
